Laboratory results: PubChem BioAssay AID493246 (Drosophila RNAi Screening Center, 2011)
Test: 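Genome-wide search for dsRNAs that reduce cell number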 (primary screen). Cell system: Drosophila Kc and S2R+ cells. Knock-down reagent: long dsRNA against Drosophila genes. Measured: 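Cell number per well after knock-down, printed as raw plate values; calls were based on per-plate z-scores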. Reading the numbers: Kc cell number and S2R+ cell number: higher = more cells remaining. Active means: 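Active when the per-plate z-score of cell number is 3 or more in the direction of fewer cells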.
In all, the deposit lists about 21,000 reagents; shown is a random part of those with a known target gene and a result. Of all reagents, 429 (2%) were called active. 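Values are raw and not normalised between plates; calls rest on per-plate z-scores that were not deposited.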 Entries without a mark were called inactive. Not given: the amount of reagent, the time to read-out.

Target gene | DRSC id | Kc cell number, rep 1 | Kc cell number, rep 2 | S2R+ cell number, rep 1 | S2R+ cell number, rep 2
dsd (distracted) | DRSC13829 | 1.18e6 | 1.56e6 | 1.13e6 | 1.16e6
dsd (distracted) | DRSC15850 | 5.08e5 | – | 8.41e5 | –
Dark (Death-associated APAF1-related killer) | DRSC05922 | 1.38e6 | 1.42e6 | 1.28e6 | 1.37e6
CtsL4 (Cathepsin L4) | DRSC02849 | 1.51e6 | 1.60e6 | 1.16e6 | 1.31e6
D19A | DRSC11133 | 1.31e6 | 1.42e6 | 7.04e5 | 7.96e5
CG1647 | DRSC15134 | 5.28e5 | – | 8.43e5 | –
Zmynd10 (Zinc finger MYND-type containing 10) | DRSC09826 | 1.38e6 | 1.33e6 | 1.21e6 | 1.25e6
eIF4EHP | DRSC13653 | 1.04e6 | 1.37e6 | 1.07e6 | 1.05e6
eIF4EHP | DRSC14265 | 1.44e6 | 1.54e6 | 1.06e6 | 1.12e6
CG42525 | DRSC08026 | 1.39e6 | 1.32e6 | 9.97e5 | 1.09e6
CG9391 | DRSC11858 | 1.47e6 | 1.60e6 | 1.24e6 | 1.35e6
Sf3a2 (Splicing factor 3a subunit 2) | DRSC09801 | 1.19e6 | 1.30e6 | 9.37e5 | 9.11e5
CG31781 (retired record) | DRSC02431 | 1.54e6 | 1.68e6 | 1.39e6 | 1.46e6
CG31781 (retired record) | DRSC02432 | 1.81e6 | 1.80e6 | 1.42e6 | 1.52e6
CG8079 | DRSC07070 | 1.38e6 | 1.49e6 | 1.00e6 | 1.03e6
CG8079 | DRSC07071 | 1.56e6 | 1.58e6 | 1.24e6 | 1.36e6
CG32333 | DRSC08627 | 1.39e6 | 1.46e6 | 1.10e6 | 1.13e6
CG32333 | DRSC08629 | 1.42e6 | 1.29e6 | 7.71e5 | 9.66e5
CG13309 | DRSC09980 | 1.45e6 | 1.34e6 | 1.02e6 | 1.04e6
cyc (cycle) | DRSC11337 | 1.52e6 | 1.52e6 | 1.34e6 | 1.38e6

Reformatted: results already given
D19A [DRSC11133] | Kc cell number, rep 1 = 1.31e6; Kc cell number, rep 2 = 1.42e6; S2R+ cell number, rep 1 = 7.04e5; S2R+ cell number, rep 2 = 7.96e5
CG1647 [DRSC15134] | Kc cell number, rep 1 = 5.28e5; S2R+ cell number, rep 1 = 8.43e5
Zmynd10 (Zinc finger MYND-type containing 10) [DRSC09826] | Kc cell number, rep 1 = 1.38e6; Kc cell number, rep 2 = 1.33e6; S2R+ cell number, rep 1 = 1.21e6; S2R+ cell number, rep 2 = 1.25e6

The list goes on:
Target gene | DRSC id | Kc cell number, rep 1 | Kc cell number, rep 2 | S2R+ cell number, rep 1 | S2R+ cell number, rep 2
CG32225 | DRSC09657 | 1.78e6 | 1.82e6 | 1.19e6 | 1.43e6
TyrRII (Tyramine receptor II) | DRSC15150 | 1.27e6 | 1.37e6 | 8.26e5 | 9.68e5
app (approximated) | DRSC09159 | 1.46e6 | 1.58e6 | 1.12e6 | 1.31e6
app (approximated) | DRSC10246 | 1.58e6 | 1.72e6 | 1.42e6 | 1.48e6
app (approximated) | DRSC10526 | 1.55e6 | 1.91e6 | 1.30e6 | 1.41e6
CG16710 | DRSC15136 | 1.68e6 | 1.74e6 | 9.82e5 | 1.13e6
CG13983 | DRSC02315 | 1.67e6 | 1.63e6 | 1.26e6 | 1.47e6
Ipo9 (Importin 9) | DRSC16813 | 1.51e6 | 1.50e6 | 1.31e6 | 1.38e6
MsrA (Methionine sulfoxide reductase A) | DRSC11159 | 1.48e6 | 1.71e6 | 1.39e6 | 1.45e6
CG8547 | DRSC07211 | 1.38e6 | 1.46e6 | 1.13e6 | 1.23e6
CycE (Cyclin E) | DRSC03295 | 1.05e6 (active) | 1.10e6 | 6.34e5 | 6.82e5
CycE (Cyclin E) | DRSC03296 | 1.31e6 (active) | 1.36e6 | 5.21e5 | 6.24e5
CG16799 | DRSC06626 | 1.58e6 | 1.18e6 | 9.84e5 | 1.22e6
Vha100-4 (Vacuolar H[+] ATPase 100kD subunit 4) | DRSC16282 | 1.23e6 | 1.25e6 | 1.08e6 | 1.14e6
CG12355 | DRSC09883 | 1.38e6 | 1.56e6 | 1.26e6 | 1.33e6
Mob4 (MOB kinase activator 4) | DRSC04993 | 1.35e6 | 1.43e6 | 1.21e6 | 1.18e6
CG10479 | DRSC09733 | 1.30e6 | 1.40e6 | 1.12e6 | 1.08e6
CG31008 | DRSC14028 | 1.23e6 | 1.37e6 | 1.03e6 | 1.06e6
abd-A (abdominal A) | DRSC13179 | 1.54e6 | 1.66e6 | 8.75e5 | 9.60e5
abd-A (abdominal A) | DRSC16897 | 2.90e5 (active) | 2.73e5 | 3.62e5 | 4.22e5
Sox21a | DRSC10819 | 1.52e6 | 1.50e6 | 1.23e6 | 1.27e6
Coq3 (Coenzyme Q3) | DRSC03168 | 1.35e6 | 1.37e6 | 1.01e6 | 1.15e6
Ccz1 (Caffeine, calcium, zinc sensitivity 1) | DRSC08439 | 1.39e6 | 1.24e6 | 9.62e5 | 1.19e6
Cyp313a3 (Cytochrome P450 313a3) | DRSC16626 | 1.56e6 | 1.56e6 | 1.26e6 | 1.33e6
PPO1 (Prophenoloxidase 1) | DRSC05929 | 1.43e6 | 1.53e6 | 1.23e6 | 1.23e6
COX5B (Cytochrome c oxidase subunit 5B) | DRSC02115 | 1.25e6 | 1.37e6 | 9.23e5 | 1.06e6
Exo84 (Exocyst 84) | DRSC15965 | 1.53e6 | 1.62e6 | 9.50e5 | 1.06e6
CG12279 | DRSC14495 | 1.65e6 | 1.93e6 | 1.53e6 | 1.64e6
CtsK1 (Cathepsin K1) | DRSC08742 | 1.66e6 | 1.58e6 | 1.16e6 | 1.30e6
Antp (Antennapedia) | DRSC12490 | 1.49e6 | 1.59e6 | 9.76e5 | 1.03e6
CG31464 | DRSC14345 | 1.79e6 | 2.03e6 | 1.30e6 | 1.40e6
Ciao1 | DRSC06170 | 1.50e6 | 1.63e6 | 1.25e6 | 1.19e6
CG3500 | DRSC04379 | 1.57e6 | 1.61e6 | 1.18e6 | 1.28e6
CG5262 | DRSC11773 | 1.44e6 | 1.46e6 | 1.25e6 | 1.33e6
DIP-alpha (Dpr-interacting protein alpha) | DRSC17892 | 1.14e6 (active) | 1.38e6 | 5.64e5 | 6.53e5
CG30375 | DRSC06834 | 1.59e6 | 1.66e6 | 1.23e6 | 1.38e6
AMPdeam (AMP deaminase) | DRSC18996 | 1.45e6 | 1.58e6 | 1.07e6 | 1.16e6
AMPdeam (AMP deaminase) | DRSC19366 | 6.06e5 | – | 9.39e5 | –
AMPdeam (AMP deaminase) | DRSC19368 | 1.70e6 | 1.72e6 | 1.08e6 | 1.19e6
AMPdeam (AMP deaminase) | DRSC19727 | 1.59e6 | 1.73e6 | 1.16e6 | 1.25e6
